At least one compound was matched to its structure with a doubt left.
Key:
[1] = target: T1, T-p53C-Y220C (Homo sapiens, UniProt P04637, M133L/N239Y/N268D/V203A/Y220C); assay: Time-dependent fluorescence unfolding kinetics; assay type: binding; conditions: 310 K (37° C.), saturating concentrations of PK083; 3.8 min without ligand
T1 construct: For all other experiments, the DNA coding for residues 94-312 of T-p53C was inserted into a modified pET24a(+) vector; 6xHis tag + B. stearothermophilus dihydrolipoyl acetyltransferase lipoyl domain (aa 1-85) + TEV site (N, cleaved yes); made in house; host or cells: Escherichia coli BL21 (DE3) or C41 (DE3)

[2] = target: T1, T-p53C-Y220C; assay: Thermal denaturation using capillary DSC; assay type: binding
Protocol: Differential Scanning calorimetry (DSC) was used to probe the stabilising effect of the ligands on […]. For a reversible two-state system, the melting temperature, Tm, is the transition temperature where the folded and unfolded states are equally populated.
DSC experiments were performed using a Microcal VP-Capillary DSC instrument (Microcal, Amherst, Mass.) with an active cell volume of ˜125 μl. Protein samples were buffer exchanged into 25 mM NaPi, pH 7.2, 150 mM NaCl, 5 mM DTT. This buffer + the respective concentration of ligand/DMSO was used for baseline scans, so that the only difference between sample and reference cell or sample cell in the measurement and both cells in the baseline scan is the presence of the protein. A final concentration of 20 μM T-p53C-Y220C was used. A pressure of 2.5 bars (nitrogen) was applied to the cell. Temperatures from 10 to 85° C. were scanned at a rate of 250° C./h, with a filtering period of 4 seconds and feedback gain/mode set at medium. Data were analysed with ORIGIN software (Microcal).
The following tables show the results of the thermal denaturation studies using capillary DSC, where ΔTm is the increase in Tm on adding 250 μM of the test compound. The Dunnett significance test (P) value given is the calculated probability that the change in Tm is insignificant.

In the case of `CCn1c2ccccc2c2cc(CNC)ccc21` [PK083], the “half-life of T-p53C-Y220C denaturation” value [1] is reported as 15.7 min, the “stabilization of T-p53C-Y220C by DSC” value [2] is reported as “stabilized T-p53C-Y220C in a concentration-dependent manner” and the Tm raised ([2]; 2.5 mM PK083, from 316 K) is reported as roughly 2 °C.
